# Percent effect of library compounds

The chains behind the UniProt entries cited, without tags or fusion partners. Residues count along the entry.
UniProt A4I591, 1-473: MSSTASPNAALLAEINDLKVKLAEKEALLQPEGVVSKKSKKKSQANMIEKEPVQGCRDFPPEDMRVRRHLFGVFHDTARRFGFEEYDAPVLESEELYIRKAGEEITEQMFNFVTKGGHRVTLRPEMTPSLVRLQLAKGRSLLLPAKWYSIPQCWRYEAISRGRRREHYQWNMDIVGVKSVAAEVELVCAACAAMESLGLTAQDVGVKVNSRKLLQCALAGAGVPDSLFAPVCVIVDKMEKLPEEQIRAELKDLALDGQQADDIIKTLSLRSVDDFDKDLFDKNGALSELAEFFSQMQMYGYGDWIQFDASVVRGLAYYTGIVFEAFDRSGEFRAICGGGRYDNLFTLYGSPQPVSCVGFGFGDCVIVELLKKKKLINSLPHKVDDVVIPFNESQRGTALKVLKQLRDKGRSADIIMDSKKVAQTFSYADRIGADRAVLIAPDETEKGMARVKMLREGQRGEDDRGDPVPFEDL

Source: ChEMBL document CHEMBL3988442, “University of Dundee, Small-Polar-MMV Screening Library” (2021).

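Histidine-tRNA ligase, Leishmania infantum (UniProt A4I591). Enzyme assay of histidyl-tRNA synthetase; the read-out is not stated. Tested at 30 µM. The record gives no direction; compounds that gave an IC50 in retests scored well above the rest, so higher reads as stronger inhibition. The assay is labelled LdHisRS but filed under L. infantum. Size under these conditions: about 69,000 compounds, about 410 of them at 50% or above in at least one test.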

Values are the deposited “Percent Effect”, in %.
The record does not define 0% and 100%; most values in the screen are far below 50% and negative numbers occur (in some assays of this library far below -100).
The compounds are a random part of those screened.

compound,Percent Effect
c1ccc(Cn2cc(CNCC3CCCN3c3cccnn3)cn2)cc1 (configuration not stated),53.03%
COC[C@@]12CCC[C@@H]1CN(C(=O)CN(C)C)C2,5.769%
N#Cc1ccc(CN2CCCCC2Cn2cccn2)cc1 (configuration not stated),3.636%
O=C(c1ccnnc1)N1CCCn2nnc(COCC3CC3)c2C1,23.08%
O=C(CN1CCCC1c1nc(Cc2ccc(F)cc2)no1)NC1CC1 (configuration not stated),11.69%
Cc1ccc(C2CCCN2CC(=O)N(CCC#N)c2ccccc2)cc1 (configuration not stated),11.61%
CC(C)C[C@H](NC(=O)N1CCC(Cc2ccccc2)CC1)C(=O)O,-17.5%
Cc1cccc(CN2CC[C@@H]3[C@@H](CO[C@H]3CNc3ncccn3)C2)n1,11.11%
CC(C)c1ccc(-n2nnc(C(=O)O)c2-c2ccccn2)cc1,7.895%
Fc1cccc(C(NCc2ncc[nH]2)c2ccccn2)c1 (configuration not stated),11.83%
Cc1nc(C)n(CC2CN(CCC(=O)N3CCCCC3)CCO2)n1 (configuration not stated),2.655%
O=C(NCC(F)(F)F)c1ccc(-n2cccn2)nn1,14.67%
Cc1ccc(NS(=O)(=O)c2cnn(Cc3ccccc3)c2)c(C(=O)O)c1,23.91%
CN(C)C(CNS(=O)(=O)c1cc(F)ccc1F)c1cccn1C (configuration not stated),13.22%
O=C(Nc1ccccc1)N1C(CN2CCOCC2)[C@]2(O)CC[C@H]1CC2 (some centres not stated),12.24%
Cc1nc(C)n(CC2CCCCN2CC(=O)Nc2c(C)n[nH]c2C)n1 (configuration not stated),16.51%
CCC1=NN2C(=N)/C(=C\c3cccn3-c3ccc(Cl)cc3)C(=O)N=C2S1,9.589%
Cc1cnc(CN2CCCC2c2noc(C)n2)cn1 (configuration not stated),14.86%
O=C1NCCCCC1NC(=O)C1(Oc2ccc(Cl)cc2)CCNCC1 (configuration not stated),12.68%
O=C(c1c[nH]c2ncccc12)N(Cc1ccco1)C1CCCC1,26.76%
COc1cc2c(cc1OC)S(=O)(=O)N(Cc1ccc(C)cc1)C2=O,14.17%
O=C(COc1cccnc1)NCc1nncn1C1CCCCC1,13.95%
CSc1ccc(C(CN)N2CCc3sccc3C2)cc1 (configuration not stated),71.43%
CCc1cnc(CN(C)C(=O)Nc2cnc3c(c2)c(C)nn3C)s1,4.712%
Cc1noc(C)c1CNC(=O)N1CCN(CC2CC2)CC1,16.13%
COc1ccc(CC(=O)N2CC[C@@H]3[C@H](CC2)N(C)CCS3(=O)=O)cc1,17.11%
c1ccc(CCN2CCN(c3ccc4nncn4n3)CC2)nc1,8.219%
O=C(O)c1cc(S(=O)(=O)Nc2cccc3c2OCCO3)c(Cl)cc1F,14.81%
Fc1cccc(N2CCCC3(C2)CN(c2cnccn2)CCO3)c1 (configuration not stated),23.68%
CC(O)CNCc1ccc(OCc2ccc3c(c2)OCCO3)cc1 (configuration not stated),20%
CCn1c(C)nnc1CN(C)C1CCN(CCCSC)C1 (configuration not stated),11.5%
Cc1ccc(O[C@@H]2C[C@H]3CN(C(=O)Cc4ccccn4)CCN3C2)cc1,2%
CN[C@H]1CC[C@]2(CC1)CNC(=O)c1cc(C)ccc1O2,4%
Cc1noc(C(C)C)c1C(=O)NCCCN1CCCCCC1=O,1.923%
COc1c(CNCc2ccc(CN(C)C)cc2)c(C(C)C)nn1C,2.4%
CC(=O)c1cccc(NC(=O)NCCCc2nc(C(C)C)no2)c1,16.81%
CCn1nc(CC(C)C)cc1C(=O)N1CCOCC(O)C1 (configuration not stated),-54.55%
CN(Cc1ccco1)C(=O)C1=NN(C)C(=O)CC1,9.574%
O=C(NCCOCC(F)(F)F)c1ccc(-c2ccco2)[nH]c1=O,16.67%
CCN(Cc1nonc1C)C(=O)Cn1nc(C(F)(F)F)cc1C,15.52%
CN(CCO)Cc1nnc(C2CCN(C(=O)c3ccccc3)CC2)n1C,5.208%
COc1ccccc1S(=O)(=O)NCC(c1cccn1C)N(C)C (configuration not stated),11.57%
Cc1ccn(CC(=O)Nc2cc(-c3ccncc3)[nH]n2)n1,20.59%
NS(=O)(=O)c1ccc(NCc2ccccc2)cc1C(F)(F)F,15.79%
Cc1noc(C)c1CN1CCO[C@H]2CN(CC3CC3)C[C@H]21,17.65%
N[C@@H]1CCC[C@@H](Oc2ccc(F)cc2Oc2ccccc2)[C@@H]1O,7.368%
O=C(CC1CC1)N1CCn2cc(Cn3cccn3)nc2C1,14%
COCCC(=O)N1CCCC(CCc2ccc(F)c(F)c2)C1 (configuration not stated),10.62%
O[C@@H]1CN(Cc2ccc(F)cc2)CC[C@H]1NCc1ccccn1,14.08%
O=C1O[C@@H]2CN(c3ccccn3)C[C@@H]2N1CCCc1ccc(F)cc1,5.479%
Cn1ccnc1-c1ccc(NCCC2COc3ccccc3O2)nn1 (configuration not stated),8.333%

Some entries from above, unchanged:

Cc1ccc(C2CCCN2CC(=O)N(CCC#N)c2ccccc2)cc1 (configuration not stated) read 11.61%.
CC(=O)c1cccc(NC(=O)NCCCc2nc(C(C)C)no2)c1 read 16.81%.
Cc1cccc(CN2CC[C@@H]3[C@@H](CO[C@H]3CNc3ncccn3)C2)n1 read 11.11%.
Cc1ccn(CC(=O)Nc2cc(-c3ccncc3)[nH]n2)n1 read 20.59%.
Cc1nc(C)n(CC2CN(CCC(=O)N3CCCCC3)CCO2)n1 (configuration not stated) read 2.655%.